Measurements reported in patent US7678773B2, “Salts of avermectins substituted in the 4″-position and having pesticidal properties” (Merial Limited, priority 2001, dated 2010).
Some results were stated once for a whole list of compounds, not compound by compound.

Key:
Type in all cases: in vivo
Heliothis virescens = experiment: Example B3: Action against Heliothis virescens (eggs on filter paper); conditions: 0.8 ml test solution on eggs 0 to 24 hours old; evaluated 6 days later
Spodoptera littoralis = experiment: Example B2: Action against Spodoptera littoralis, systemic (maize seedlings); conditions: systemic: maize seedlings in test solution 6 days; leaves infested with L1 larvae; evaluated 4 days later
[1] = test system: Frankliniella occidentalis; experiment: Example B5: Action against Frankliniella occidentalis (bean leaf pieces); conditions: bean leaf pieces sprayed with test solution; mixed population; evaluated 10 days later

Measured: reduction in the pest population (% activity)

O=C(O)CCCOc1ccccc1 [B.70, 4-phenoxy-butyric acid]
more than 80%: all assays above
